Results are given in words; binding and its absence hold for the method and conditions named. In cells and extracts the contact can be indirect. Here binding means that the protein was enriched with, or labelled near, the bait; the list need not be complete. Sequences can lack the tags named with a protein.
Target: T1, Spin-GFP (Spinster) (Drosophila) (UniProt Q9GQQ0)
T1 sequence: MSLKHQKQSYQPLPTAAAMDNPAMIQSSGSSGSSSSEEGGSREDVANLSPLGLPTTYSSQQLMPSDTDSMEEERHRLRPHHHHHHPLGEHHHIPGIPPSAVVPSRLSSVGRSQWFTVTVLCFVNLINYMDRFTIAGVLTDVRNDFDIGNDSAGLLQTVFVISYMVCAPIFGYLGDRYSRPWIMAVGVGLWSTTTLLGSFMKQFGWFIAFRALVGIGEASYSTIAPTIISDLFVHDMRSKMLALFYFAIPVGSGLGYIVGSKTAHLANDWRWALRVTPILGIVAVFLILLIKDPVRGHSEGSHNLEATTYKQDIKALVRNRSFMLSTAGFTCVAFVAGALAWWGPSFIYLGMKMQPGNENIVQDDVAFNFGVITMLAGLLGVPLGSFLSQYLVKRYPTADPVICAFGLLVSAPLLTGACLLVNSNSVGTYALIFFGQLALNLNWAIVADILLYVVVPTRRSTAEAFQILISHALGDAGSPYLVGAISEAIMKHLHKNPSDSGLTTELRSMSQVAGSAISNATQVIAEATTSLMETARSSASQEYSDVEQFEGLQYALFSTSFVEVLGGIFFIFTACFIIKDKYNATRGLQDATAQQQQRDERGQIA
Assay: affinity purification with mass spectrometry

Sequences of proteins named here, by UniProt entry; tags and fusion partners are left off. Residues count along the entry.
UniProt Q9V496, residues 26-3351: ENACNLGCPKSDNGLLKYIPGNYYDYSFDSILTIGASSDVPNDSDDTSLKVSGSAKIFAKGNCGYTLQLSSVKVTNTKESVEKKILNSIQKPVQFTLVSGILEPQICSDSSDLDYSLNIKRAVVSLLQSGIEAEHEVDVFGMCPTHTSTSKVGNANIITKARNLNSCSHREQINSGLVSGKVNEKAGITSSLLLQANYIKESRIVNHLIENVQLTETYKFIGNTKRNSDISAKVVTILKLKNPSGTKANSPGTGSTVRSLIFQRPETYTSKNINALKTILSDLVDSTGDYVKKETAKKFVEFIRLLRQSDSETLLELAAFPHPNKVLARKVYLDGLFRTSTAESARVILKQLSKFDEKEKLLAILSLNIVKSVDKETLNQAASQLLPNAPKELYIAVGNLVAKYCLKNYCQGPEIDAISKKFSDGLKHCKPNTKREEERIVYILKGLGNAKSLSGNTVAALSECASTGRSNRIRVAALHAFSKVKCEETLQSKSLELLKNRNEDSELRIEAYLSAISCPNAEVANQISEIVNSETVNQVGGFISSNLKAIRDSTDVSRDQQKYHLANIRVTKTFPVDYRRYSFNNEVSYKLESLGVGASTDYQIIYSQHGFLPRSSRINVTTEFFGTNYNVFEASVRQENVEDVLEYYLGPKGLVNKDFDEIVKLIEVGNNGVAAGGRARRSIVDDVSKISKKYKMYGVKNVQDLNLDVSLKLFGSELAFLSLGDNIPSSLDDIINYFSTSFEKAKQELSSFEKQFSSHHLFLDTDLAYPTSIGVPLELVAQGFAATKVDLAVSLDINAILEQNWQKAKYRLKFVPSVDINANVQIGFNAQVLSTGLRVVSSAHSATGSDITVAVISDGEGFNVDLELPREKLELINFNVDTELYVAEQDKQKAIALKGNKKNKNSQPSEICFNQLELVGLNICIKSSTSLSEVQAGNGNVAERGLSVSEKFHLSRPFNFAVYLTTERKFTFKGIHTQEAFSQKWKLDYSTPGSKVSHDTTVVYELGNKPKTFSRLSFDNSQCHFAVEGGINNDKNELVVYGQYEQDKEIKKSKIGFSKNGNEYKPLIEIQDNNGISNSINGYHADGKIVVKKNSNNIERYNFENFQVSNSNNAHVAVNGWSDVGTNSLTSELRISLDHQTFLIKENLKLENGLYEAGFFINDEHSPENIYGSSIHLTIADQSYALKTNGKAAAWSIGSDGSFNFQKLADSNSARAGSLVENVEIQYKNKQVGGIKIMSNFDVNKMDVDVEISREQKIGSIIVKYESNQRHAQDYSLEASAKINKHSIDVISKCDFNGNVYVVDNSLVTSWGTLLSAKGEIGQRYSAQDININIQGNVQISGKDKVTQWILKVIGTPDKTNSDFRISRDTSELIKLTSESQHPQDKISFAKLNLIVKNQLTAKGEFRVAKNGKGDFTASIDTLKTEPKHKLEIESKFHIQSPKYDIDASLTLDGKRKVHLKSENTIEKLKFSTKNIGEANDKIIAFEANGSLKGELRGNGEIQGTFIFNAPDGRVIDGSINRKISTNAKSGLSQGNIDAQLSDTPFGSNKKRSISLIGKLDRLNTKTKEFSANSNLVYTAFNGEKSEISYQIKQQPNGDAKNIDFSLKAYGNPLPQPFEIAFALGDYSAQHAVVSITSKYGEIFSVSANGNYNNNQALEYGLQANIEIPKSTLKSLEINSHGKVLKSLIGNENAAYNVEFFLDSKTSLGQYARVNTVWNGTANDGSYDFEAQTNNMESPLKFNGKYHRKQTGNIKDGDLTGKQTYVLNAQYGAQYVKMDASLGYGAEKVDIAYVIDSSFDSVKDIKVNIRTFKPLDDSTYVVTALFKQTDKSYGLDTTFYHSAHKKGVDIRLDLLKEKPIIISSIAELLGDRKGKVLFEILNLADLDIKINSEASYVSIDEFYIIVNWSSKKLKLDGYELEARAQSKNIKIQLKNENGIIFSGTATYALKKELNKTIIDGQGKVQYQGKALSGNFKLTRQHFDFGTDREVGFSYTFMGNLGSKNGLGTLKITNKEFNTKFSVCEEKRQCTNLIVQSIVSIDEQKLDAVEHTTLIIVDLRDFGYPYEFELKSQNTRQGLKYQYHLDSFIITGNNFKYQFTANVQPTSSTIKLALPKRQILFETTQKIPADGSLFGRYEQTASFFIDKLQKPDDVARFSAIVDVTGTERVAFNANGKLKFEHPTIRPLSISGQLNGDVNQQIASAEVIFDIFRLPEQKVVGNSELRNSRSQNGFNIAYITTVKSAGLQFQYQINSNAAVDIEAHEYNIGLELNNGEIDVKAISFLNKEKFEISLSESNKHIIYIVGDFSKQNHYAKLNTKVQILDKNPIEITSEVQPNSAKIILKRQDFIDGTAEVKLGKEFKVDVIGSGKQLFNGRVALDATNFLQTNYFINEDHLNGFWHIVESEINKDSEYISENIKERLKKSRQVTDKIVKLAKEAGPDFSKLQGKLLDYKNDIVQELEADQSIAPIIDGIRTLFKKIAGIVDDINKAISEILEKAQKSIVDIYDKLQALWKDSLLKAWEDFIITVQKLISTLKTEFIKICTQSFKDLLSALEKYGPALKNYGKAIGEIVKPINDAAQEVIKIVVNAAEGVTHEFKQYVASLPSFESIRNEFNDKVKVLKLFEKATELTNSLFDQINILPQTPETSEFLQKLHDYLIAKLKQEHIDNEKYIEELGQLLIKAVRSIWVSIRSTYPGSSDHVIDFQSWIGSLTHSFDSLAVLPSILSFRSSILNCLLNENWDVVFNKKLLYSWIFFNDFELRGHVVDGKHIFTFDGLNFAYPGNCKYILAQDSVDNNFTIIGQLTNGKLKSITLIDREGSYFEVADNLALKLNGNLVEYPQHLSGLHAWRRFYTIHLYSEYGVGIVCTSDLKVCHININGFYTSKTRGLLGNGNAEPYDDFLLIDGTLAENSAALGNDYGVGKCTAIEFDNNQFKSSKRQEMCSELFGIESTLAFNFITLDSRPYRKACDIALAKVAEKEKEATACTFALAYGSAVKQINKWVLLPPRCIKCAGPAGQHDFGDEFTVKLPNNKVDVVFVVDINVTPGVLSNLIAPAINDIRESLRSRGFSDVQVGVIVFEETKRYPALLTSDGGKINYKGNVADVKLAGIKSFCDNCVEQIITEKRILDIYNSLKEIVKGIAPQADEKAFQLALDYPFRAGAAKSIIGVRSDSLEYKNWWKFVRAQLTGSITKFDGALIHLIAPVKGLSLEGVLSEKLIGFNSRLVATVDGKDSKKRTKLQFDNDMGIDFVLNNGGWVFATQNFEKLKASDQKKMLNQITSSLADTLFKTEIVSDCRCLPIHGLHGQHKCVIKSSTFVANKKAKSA
UniProt O18640: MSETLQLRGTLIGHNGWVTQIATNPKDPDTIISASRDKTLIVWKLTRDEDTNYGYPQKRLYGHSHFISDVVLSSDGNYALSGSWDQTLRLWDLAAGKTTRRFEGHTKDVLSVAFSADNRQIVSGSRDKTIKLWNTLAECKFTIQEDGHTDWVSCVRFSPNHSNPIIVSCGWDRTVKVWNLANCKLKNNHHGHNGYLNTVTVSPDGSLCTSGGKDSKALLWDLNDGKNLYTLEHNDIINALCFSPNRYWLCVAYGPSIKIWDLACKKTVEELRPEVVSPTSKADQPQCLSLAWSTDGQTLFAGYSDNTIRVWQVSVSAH

binding	Substance
binds	Apolipophorin (from UniProt Q9V496 26-3351)
binds	Guanine nucleotide-binding protein subunit beta-like protein/Rack1 (from UniProt O18640 1-318)
